Data as given in PubChem BioAssay AID1053209 (Peter MacCallum Cancer Centre, 2014)

Aim: 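Gene losses that combine with doxorubicin to kill mouse bone cancer cells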 (follow-up of hits)
Cell system: mouse primary osteosarcoma cells
Reagent: single siRNA against mouse genes, 25 nM (text also states 40 nM)
Duration: about 120 h (48 h before drug, then 72 h with drug)
Treatment: doxorubicin 100 nM (about IC30-40), added 48 h after transfection, for 72 h
Detection: 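ATP-based luminescent viability, with or without doxorubicin, relative to non-targeting control NT1, mean of two replicates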
Scale: viability with doxorubicin, vs NT1: higher = more viable cells under doxorubicin; viability ratio, doxorubicin over no drug: higher = less sensitisation to doxorubicin; viability without drug, vs NT1: higher = more viable cells without drug
Hit rule: 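Active when doxorubicin viability is at most 0.7 of NT1 and drug-free viability lies between 0.7 and 1.1, class LC dox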
Shown is one part, drawn at random, of about 1,580 deposited reagents. 207 of them (13%) were called active. 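Rows are single siRNAs; four siRNAs per gene were tested, a gene counting as confirmed only when at least two agree.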 The numbers tell different reagents against one gene apart.

combined effect class,"viability with doxorubicin, vs NT1","viability ratio, doxorubicin over no drug","viability without drug, vs NT1",call,target,reagent no.
low viability with and without drug,0.22,0.48,0.46,inactive,Kpnb1 (karyopherin subunit beta 1),1
low viability with and without drug,0.21,0.68,0.31,inactive,Kpnb1 (karyopherin subunit beta 1),2
normal viability with and without drug,0.78,0.85,0.92,inactive,Kpnb1 (karyopherin subunit beta 1),3
low viability with and without drug,0.26,0.53,0.49,inactive,Kpnb1 (karyopherin subunit beta 1),4
high viability only without drug,0.98,0.85,1.15,inactive,Rasgrf1 (RAS protein-specific guanine nucleotide-releasing factor 1),1
normal viability with and without drug,0.94,0.96,0.98,inactive,Rasgrf1 (RAS protein-specific guanine nucleotide-releasing factor 1),2
normal viability with and without drug,0.97,0.96,1.01,inactive,Rasgrf1 (RAS protein-specific guanine nucleotide-releasing factor 1),3
normal viability with and without drug,1.06,1,1.06,inactive,Rasgrf1 (RAS protein-specific guanine nucleotide-releasing factor 1),4
low viability with and without drug,0.48,0.75,0.64,inactive,Psma7 (proteasome subunit alpha 7),1
low viability with and without drug,0.31,0.58,0.53,inactive,Psma7 (proteasome subunit alpha 7),2
normal viability with and without drug,0.74,0.76,0.98,inactive,Psma7 (proteasome subunit alpha 7),3
low viability with and without drug,0.27,0.5,0.54,inactive,Psma7 (proteasome subunit alpha 7),4
low viability only with doxorubicin; normal without drug,0.61,0.73,0.84,active,Puf60 (poly-U binding splicing factor 60),1
low viability with and without drug,0.44,0.66,0.67,inactive,Puf60 (poly-U binding splicing factor 60),2
low viability only with doxorubicin; normal without drug,0.4,0.47,0.86,active,Puf60 (poly-U binding splicing factor 60),3
normal viability with and without drug,0.83,0.92,0.9,inactive,Puf60 (poly-U binding splicing factor 60),4
low viability with and without drug,0.38,1.06,0.36,inactive,Reg2 (regenerating islet-derived 2),1
normal viability with and without drug,0.95,1.04,0.91,inactive,Reg2 (regenerating islet-derived 2),2
normal viability with and without drug,1.04,1.13,0.92,inactive,Reg2 (regenerating islet-derived 2),3
high viability only with doxorubicin,1.12,1.06,1.06,inactive,Reg2 (regenerating islet-derived 2),4
normal viability with and without drug,0.99,0.99,1,inactive,Snrk (SNF related kinase),1
normal viability with and without drug,0.95,1.01,0.94,inactive,Snrk (SNF related kinase),2
high viability only without drug,1.06,0.91,1.17,inactive,Snrk (SNF related kinase),3
normal viability with and without drug,1.06,1.05,1.01,inactive,Snrk (SNF related kinase),4
normal viability with and without drug,0.94,0.98,0.96,inactive,Med26 (mediator complex subunit 26),1
normal viability with and without drug,0.72,0.82,0.88,inactive,Med26 (mediator complex subunit 26),2
normal viability with and without drug,0.76,0.85,0.89,inactive,Med26 (mediator complex subunit 26),3
low viability with and without drug,0.34,0.57,0.6,inactive,Med26 (mediator complex subunit 26),4
normal viability with and without drug,0.96,0.95,1.01,inactive,Gabarapl2 (GABA type A receptor associated protein like 2),1
normal viability with and without drug,0.76,0.85,0.89,inactive,Gabarapl2 (GABA type A receptor associated protein like 2),2
normal viability with and without drug,0.84,0.92,0.91,inactive,Gabarapl2 (GABA type A receptor associated protein like 2),3
normal viability with and without drug,0.82,0.91,0.9,inactive,Gabarapl2 (GABA type A receptor associated protein like 2),4
normal viability with and without drug,1.04,1.04,1,inactive,Rpl19 (ribosomal protein L19),1
low viability with and without drug,0.46,0.77,0.6,inactive,Rpl19 (ribosomal protein L19),2
low viability with and without drug,0.56,0.8,0.7,inactive,Rpl19 (ribosomal protein L19),3
low viability with and without drug,0.35,0.57,0.61,inactive,Rpl19 (ribosomal protein L19),4
normal viability with and without drug,0.97,1.03,0.94,inactive,Rnf122 (ring finger protein 122),1
high viability only without drug,1.02,0.89,1.15,inactive,Rnf122 (ring finger protein 122),2
normal viability with and without drug,0.73,0.76,0.96,inactive,Rnf122 (ring finger protein 122),3
normal viability with and without drug,0.93,0.97,0.96,inactive,Rnf122 (ring finger protein 122),4
low viability only with doxorubicin; normal without drug,0.69,0.7,0.98,active,Xirp1 (xin actin-binding repeat containing 1),1
normal viability with and without drug,0.98,1.02,0.96,inactive,Xirp1 (xin actin-binding repeat containing 1),2
normal viability with and without drug,0.96,0.95,1.01,inactive,Xirp1 (xin actin-binding repeat containing 1),3
normal viability with and without drug,0.88,0.82,1.07,inactive,Xirp1 (xin actin-binding repeat containing 1),4
high viability only without drug,1.04,0.9,1.15,inactive,Prps1l1 (phosphoribosyl pyrophosphate synthetase 1-like 1),1
normal viability with and without drug,1.01,0.98,1.03,inactive,Prps1l1 (phosphoribosyl pyrophosphate synthetase 1-like 1),2
low viability only with doxorubicin; normal without drug,0.62,0.76,0.82,active,Prps1l1 (phosphoribosyl pyrophosphate synthetase 1-like 1),3
normal viability with and without drug,0.97,0.93,1.04,inactive,Prps1l1 (phosphoribosyl pyrophosphate synthetase 1-like 1),4
normal viability with and without drug,0.92,0.97,0.95,inactive,Rdh19 (retinol dehydrogenase 19),1
normal viability with and without drug,0.9,0.85,1.06,inactive,Rdh19 (retinol dehydrogenase 19),2
low viability only with doxorubicin; normal without drug,0.44,0.54,0.82,active,Rdh19 (retinol dehydrogenase 19),3
normal viability with and without drug,1.02,1.02,1,inactive,Rdh19 (retinol dehydrogenase 19),4
normal viability with and without drug,1,1.03,0.97,inactive,Rnps1 (RNA binding protein with serine rich domain 1),1
low viability only with doxorubicin; normal without drug,0.67,0.84,0.8,active,Rnps1 (RNA binding protein with serine rich domain 1),2
normal viability with and without drug,0.8,0.89,0.9,inactive,Rnps1 (RNA binding protein with serine rich domain 1),3
normal viability with and without drug,0.83,1,0.83,inactive,Rnps1 (RNA binding protein with serine rich domain 1),4
low viability only with doxorubicin; normal without drug,0.68,0.75,0.91,active,"Ppm1n (protein phosphatase, Mg2+/Mn2+ dependent, 1N (putative))",1
low viability only with doxorubicin; normal without drug,0.69,0.7,0.98,active,"Ppm1n (protein phosphatase, Mg2+/Mn2+ dependent, 1N (putative))",2
normal viability with and without drug,0.78,0.89,0.88,inactive,"Ppm1n (protein phosphatase, Mg2+/Mn2+ dependent, 1N (putative))",3
normal viability with and without drug,0.8,0.89,0.9,inactive,"Ppm1n (protein phosphatase, Mg2+/Mn2+ dependent, 1N (putative))",4

A portion from the list above, as a working copy:
combined effect class,"viability with doxorubicin, vs NT1","viability ratio, doxorubicin over no drug","viability without drug, vs NT1",call,target,reagent no.
normal viability with and without drug,0.97,0.96,1.01,inactive,Rasgrf1 (RAS protein-specific guanine nucleotide-releasing factor 1),3
normal viability with and without drug,1.06,1,1.06,inactive,Rasgrf1 (RAS protein-specific guanine nucleotide-releasing factor 1),4
low viability with and without drug,0.48,0.75,0.64,inactive,Psma7 (proteasome subunit alpha 7),1
low viability with and without drug,0.31,0.58,0.53,inactive,Psma7 (proteasome subunit alpha 7),2
normal viability with and without drug,0.74,0.76,0.98,inactive,Psma7 (proteasome subunit alpha 7),3
low viability with and without drug,0.27,0.5,0.54,inactive,Psma7 (proteasome subunit alpha 7),4
low viability only with doxorubicin; normal without drug,0.61,0.73,0.84,active,Puf60 (poly-U binding splicing factor 60),1
low viability with and without drug,0.44,0.66,0.67,inactive,Puf60 (poly-U binding splicing factor 60),2
low viability only with doxorubicin; normal without drug,0.4,0.47,0.86,active,Puf60 (poly-U binding splicing factor 60),3
